No constants are given. Whether binding was seen depends on the method and setting. For part of these data: In cells and extracts the contact can be indirect. Some binding calls cover weakened binding; strength is not graded here. For part of these data: Tags and fused reporters may be left off the sequences shown. Blank lines part the entries; values can stand above or below the molecule they belong to.
Assays:
[1] = biological target: T1, FLAG-HA tagged Syntaxin 5 (FH-STX5), full length (human) (UniProt Q13190); test: pull-down
T1 sequence: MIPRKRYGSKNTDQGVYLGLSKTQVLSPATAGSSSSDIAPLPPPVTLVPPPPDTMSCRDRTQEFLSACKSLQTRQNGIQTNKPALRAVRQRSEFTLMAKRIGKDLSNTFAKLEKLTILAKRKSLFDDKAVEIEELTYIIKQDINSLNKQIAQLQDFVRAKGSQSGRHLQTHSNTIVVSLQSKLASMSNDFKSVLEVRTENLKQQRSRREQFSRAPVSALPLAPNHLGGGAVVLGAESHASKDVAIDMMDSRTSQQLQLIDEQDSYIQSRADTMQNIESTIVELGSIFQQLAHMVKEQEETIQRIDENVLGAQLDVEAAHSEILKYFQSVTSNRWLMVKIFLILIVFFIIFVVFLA

Chains of the proteins cited; added tags and fusions are not shown.
UniProt Q15717: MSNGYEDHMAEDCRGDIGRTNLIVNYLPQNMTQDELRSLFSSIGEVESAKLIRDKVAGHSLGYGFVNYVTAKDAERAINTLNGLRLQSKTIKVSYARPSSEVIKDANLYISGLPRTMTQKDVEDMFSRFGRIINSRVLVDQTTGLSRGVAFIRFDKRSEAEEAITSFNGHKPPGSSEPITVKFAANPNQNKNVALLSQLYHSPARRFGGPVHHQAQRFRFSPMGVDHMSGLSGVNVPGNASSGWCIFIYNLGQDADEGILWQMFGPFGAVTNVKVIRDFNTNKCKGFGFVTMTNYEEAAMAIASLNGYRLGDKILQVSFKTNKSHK
UniProt B5DF91: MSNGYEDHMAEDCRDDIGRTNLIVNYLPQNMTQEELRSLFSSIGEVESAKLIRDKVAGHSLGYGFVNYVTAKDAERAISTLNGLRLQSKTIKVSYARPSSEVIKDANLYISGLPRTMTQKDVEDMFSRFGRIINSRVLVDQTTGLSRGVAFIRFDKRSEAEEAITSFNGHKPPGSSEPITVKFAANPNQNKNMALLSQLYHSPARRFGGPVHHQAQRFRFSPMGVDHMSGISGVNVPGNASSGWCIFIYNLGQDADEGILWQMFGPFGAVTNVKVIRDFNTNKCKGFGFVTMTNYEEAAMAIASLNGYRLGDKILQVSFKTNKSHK

[2] = biological target: T1, FLAG-HA tagged Syntaxin 5 (FH-STX5), full length (human); test: co-IP
[3] = biological target: HA-tagged HuR (HA-HuR), full length (human) (UniProt Q15717); test: co-IP

binding [1]: binds
Molecule: His-tagged recombinant HuR (rHuR) (from UniProt Q15717 1-326)

binding [2]: binds
Molecule: HuR, endogenous in C6 cells (from UniProt B5DF91 1-326)

binding [3]: binds
B1: Syntaxin 5, endogenous in C6 cells (protein, UniProt Q08851 1-355)
chain: MIPRKRYGSKNTDQGVYLGLSKTQVLSPATAINSSSDIAPLPTPVALVPSPPDTMSCRDRTQEFLSACKSLQSRQNGIQTNKPALHATRQCSEFTLMARRIGKDLSNTFAKLEKLTILAKRKSLFDDKAVEIEELTYIIKQDINSLNKQIAQLQDFVRAKGSQSGRHLQTHSNTIVVSLQSKLASMSNDFKSVLEVRTENLKQQRNRREQFSRAPVSALPLAPNNLGGGPIVLGGESRASRDVAIDMMDPRTSQQLQLIDEQDSYIQSRADTMQNIESTIVELGSIFQQLAHMVKEQEETIQRIDENVLGAQLDVEAAHSEILKYFQSVTSNRWLMVKIFLILIVFFIIFVVFLA
